Reference: patent publication US20220275341A1, “ORGANOID MESODERM LINEAGE DIVERSIFICATION” (CHILDREN'S HOSPITAL MEDICAL CENTER, priority 2019, published 2022)
“Also recorded” adds a separate entry of the source. At least one compound was matched to its structure with a doubt left.

System: human pluripotent stem cells (hPSC) differentiated into lateral plate mesoderm
Test: RA added during differentiation of hPSC-derived lateral plate mesoderm to splanchnic mesoderm (days 2-4), markers by RT-PCR
Assay type: cell-based
Conditions: RA added to the lpm differentiation media on days 2-4, 2 μM RA

## CC1=C(/C=C/C(C)=C/C=C/C(C)=C/C(=O)O)C(C)(C)CCC1 [RA, retinoic acid]
  SM markers FOXF1, HOXA1, HOXA5, and WNT2 / splanchnic mesoderm progenitors: promotes splanchnic mesoderm progenitors; also recorded: promoted
  cardiac markers NKX2-5, ISL1 and TBX20 / cardiac mesoderm: suppresses cardiac mesoderm; also recorded: down-regulated
